These are yes or no findings as the source states them, for the method shown.
Target: Pfs230D1 (domain 1 of Plasmodium falciparum Pfs230 with part of the N-terminal region) (Plasmodium falciparum (3D7)) (UniProt P68874)
Experiment: SEC-MALS + other: SEC-SAXS; SIBYLS beamline 12.3.1; the sample was injected into a size-exclusion column and a post-column splitter directed the eluate to the MALS and SAXS systems; molecular weight from Astra 6 (MALS) and PRIMUS/ATSAS (SAXS); both purified

The chains behind the UniProt entries cited, without tags or fusion partners. Residues count along the entry.
UniProt P68874, residues 542-736: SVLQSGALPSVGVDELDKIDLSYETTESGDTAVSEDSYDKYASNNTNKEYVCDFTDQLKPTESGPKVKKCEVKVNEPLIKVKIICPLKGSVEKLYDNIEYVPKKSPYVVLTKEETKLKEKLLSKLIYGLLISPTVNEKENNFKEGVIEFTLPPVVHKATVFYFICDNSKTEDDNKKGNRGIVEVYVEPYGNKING

binding: no binding
Substance: Pfs230D1 (domain 1 of Plasmodium falciparum Pfs230 with part of the N-terminal region) (from UniProt P68874 542-736) (domain or fragment)

Source: PMC10439124
